One test concerns the target Flag-ERα (UniProt P03372). As to the kind of experiment: co-IP; HEK-293T cotransfected with 2 µg ERα plasmid and full-length GFP-PSMD14 or its mutants; 10 μM MG132 for 6 h; NP-40 lysis buffer; co-IP with anti-Flag antibody, detection with anti-GFP antibody.
A further test deals with Myc-PSMD14 (human) (UniProt O00487). As to the kind of experiment: co-IP; HEK-293T cotransfected with 2 µg PSMD14 plasmid and full-length HA-ERα or mutant ERα; 10 μM MG132 for 6 h; NP-40 lysis buffer; co-IP with anti-Myc antibody, detection with anti-HA antibody.
The target in test [1] is ERα (human (endogenous in MCF-7)) (UniProt P03372). As to the kind of experiment: co-IP; endogenous proteins; lysates of MCF-7 cells precipitated with anti-ERα or anti-PSMD14 antibodies and protein A/G agarose at 4 °C overnight, precipitates examined by immunoblotting.

Amino acid sequences for entries named in this document (tags omitted). A change or cut given only in a name is not applied to a line headed by its entry.
UniProt P03372: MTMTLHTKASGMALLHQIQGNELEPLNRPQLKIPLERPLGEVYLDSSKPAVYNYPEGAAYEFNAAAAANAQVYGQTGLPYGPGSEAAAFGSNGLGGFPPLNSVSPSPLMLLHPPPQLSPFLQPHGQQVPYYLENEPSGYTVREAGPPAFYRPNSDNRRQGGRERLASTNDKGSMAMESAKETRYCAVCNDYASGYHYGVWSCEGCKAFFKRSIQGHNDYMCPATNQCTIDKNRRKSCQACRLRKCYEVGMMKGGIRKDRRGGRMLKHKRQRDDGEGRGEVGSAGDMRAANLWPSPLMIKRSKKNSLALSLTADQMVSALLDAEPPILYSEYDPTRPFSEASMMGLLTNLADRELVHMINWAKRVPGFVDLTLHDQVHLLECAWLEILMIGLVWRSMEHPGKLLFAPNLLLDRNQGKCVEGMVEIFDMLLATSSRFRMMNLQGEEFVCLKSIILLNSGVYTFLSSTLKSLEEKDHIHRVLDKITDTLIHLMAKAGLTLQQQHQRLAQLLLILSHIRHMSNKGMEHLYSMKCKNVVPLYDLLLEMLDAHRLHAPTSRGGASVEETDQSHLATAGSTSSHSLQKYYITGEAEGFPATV
UniProt O00487: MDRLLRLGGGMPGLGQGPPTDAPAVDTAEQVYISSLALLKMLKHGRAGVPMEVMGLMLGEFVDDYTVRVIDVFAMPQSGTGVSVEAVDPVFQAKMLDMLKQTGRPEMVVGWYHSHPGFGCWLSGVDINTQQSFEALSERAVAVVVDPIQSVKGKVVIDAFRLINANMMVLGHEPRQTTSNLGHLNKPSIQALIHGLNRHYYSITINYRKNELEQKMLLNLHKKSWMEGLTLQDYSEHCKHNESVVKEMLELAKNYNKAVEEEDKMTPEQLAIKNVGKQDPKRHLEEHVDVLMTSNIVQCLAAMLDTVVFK

No constants are given. Whether binding was seen depends on the method and setting. Binding seen in cells or lysates may run through a third protein. Some results given as binding are weak or reduced against the parent protein; the word gives no strength.

As for “GFP-PSMD14 (1–172) (from UniProt O00487 1-172) (domain or fragment)”, in the test with Flag-ERα, the binding entry is “binds”. For the substance “HA-ERα (1–180) (from UniProt P03372 1-180) (domain or fragment)”, in the test with Myc-PSMD14 (human), the binding result is “binds”. As for “PSMD14 (Proteasome 26S Subunit, Non-ATPase 14) (from UniProt O00487 1-310) (enzyme)”, the binding result in test [1] is reported as “binds”. “full-length GFP-PSMD14 (from UniProt O00487 1-310) (enzyme)”: the binding result with Flag-ERα was “binds”. With “full-length HA-ERα (from UniProt P03372 1-595) (receptor)”, the binding entry with Myc-PSMD14 (human) is “binds”.

Values taken from article PMC10798890.
